Measured data: PubChem BioAssay AID652272 (Drosophila RNAi Screening Center, 2013)
In all, the deposit lists about 21,000 reagents; this is a random part of those with a known target gene and a result. Over the whole deposit, 503 (2.4%) were called active. 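Raw plate light values, not normalised; calls rest on replicate z-scores that were not deposited; hits include reporter decreases as well as increases.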 Names joined by + are all predicted targets of the reagent. No sequences are given here. Not given: the amount of reagent, the time to read-out.

Test: 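Genome-wide knock-down search for components of Hedgehog signalling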 (primary screen)
System: Drosophila clone 8 (Cl8) cells
Reagent: long dsRNA against Drosophila genes
Detection: 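Plate reader light from a firefly reporter under a ptc promoter fragment that responds to Hedgehog, with Renilla light as transfection reference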
Direction: firefly Hh reporter signal: higher = more ptc reporter light; Renilla reference signal: higher = more Renilla control light
Hit rule: 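Hit when the z-score averaged over two replicates is under -2 or over +3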
Calls: active = hit: reporter lowered or raised; inactive = not a hit

{"gene":"gfzf (GST-containing FLYWCH zinc-finger protein)","dsRNA":"DRSC12506","firefly Hh reporter signal, replicate 1":1.22e5,"firefly Hh reporter signal, replicate 2":85235,"Renilla reference signal, replicate 1":4560,"Renilla reference signal, replicate 2":3040,"outcome":"inactive"}
{"gene":"CG5078","dsRNA":"DRSC11762","firefly Hh reporter signal, replicate 1":89568,"firefly Hh reporter signal, replicate 2":68109,"Renilla reference signal, replicate 1":3395,"Renilla reference signal, replicate 2":1911,"outcome":"inactive"}
{"gene":"Pss (Phosphatidylserine synthase)","dsRNA":"DRSC11757","firefly Hh reporter signal, replicate 1":1.26e5,"firefly Hh reporter signal, replicate 2":78488,"Renilla reference signal, replicate 1":4584,"Renilla reference signal, replicate 2":2717,"outcome":"inactive"}
{"gene":"CG14223","dsRNA":"DRSC19580","firefly Hh reporter signal, replicate 1":80801,"firefly Hh reporter signal, replicate 2":1.90e5,"Renilla reference signal, replicate 1":2523,"Renilla reference signal, replicate 2":7435,"outcome":"inactive"}
{"gene":"Ref1 (RNA and export factor binding protein 1)","dsRNA":"DRSC12497","firefly Hh reporter signal, replicate 1":2.95e5,"firefly Hh reporter signal, replicate 2":1.36e5,"firefly Hh reporter signal, replicate 3":91051,"Renilla reference signal, replicate 1":25952,"Renilla reference signal, replicate 2":6087,"outcome":"active"}
{"gene":"ssp2 (short spindle 2)","dsRNA":"DRSC11052","firefly Hh reporter signal, replicate 1":1.05e5,"firefly Hh reporter signal, replicate 2":38509,"Renilla reference signal, replicate 1":3792,"Renilla reference signal, replicate 2":1542,"outcome":"inactive"}
{"gene":"mop (myopic)","dsRNA":"DRSC11065","firefly Hh reporter signal, replicate 1":59200,"firefly Hh reporter signal, replicate 2":49082,"Renilla reference signal, replicate 1":2624,"Renilla reference signal, replicate 2":2139,"outcome":"inactive"}
{"gene":"CG7991","dsRNA":"DRSC08609","firefly Hh reporter signal, replicate 1":76517,"firefly Hh reporter signal, replicate 2":46102,"Renilla reference signal, replicate 1":2422,"Renilla reference signal, replicate 2":3196,"outcome":"inactive"}
{"gene":"ppk (pickpocket)","dsRNA":"DRSC03595","firefly Hh reporter signal, replicate 1":1.04e5,"firefly Hh reporter signal, replicate 2":47843,"Renilla reference signal, replicate 1":2900,"Renilla reference signal, replicate 2":4784,"outcome":"inactive"}
{"gene":"vri (vrille)","dsRNA":"DRSC03633","firefly Hh reporter signal, replicate 1":57256,"firefly Hh reporter signal, replicate 2":19728,"Renilla reference signal, replicate 1":1655,"Renilla reference signal, replicate 2":2481,"outcome":"inactive"}
{"gene":"CG12123","dsRNA":"DRSC17818","firefly Hh reporter signal, replicate 1":1.05e5,"firefly Hh reporter signal, replicate 2":82309,"Renilla reference signal, replicate 1":2547,"Renilla reference signal, replicate 2":1906,"outcome":"inactive"}

An excerpt from above, showing only “firefly Hh reporter signal, replicate 2”.
CG5078 [DRSC11762]: 68109
Pss (Phosphatidylserine synthase) [DRSC11757]: 78488
CG14223 [DRSC19580]: 1.90e5
Ref1 (RNA and export factor binding protein 1) [DRSC12497]: 1.36e5
ssp2 (short spindle 2) [DRSC11052]: 38509

Further reagents:
{"gene":"Ctr1C (Copper transporter 1C)","dsRNA":"DRSC15089","firefly Hh reporter signal, replicate 1":1.18e5,"firefly Hh reporter signal, replicate 2":1.12e5,"Renilla reference signal, replicate 1":3515,"Renilla reference signal, replicate 2":3397,"outcome":"inactive"}
{"gene":"CG17819","dsRNA":"DRSC15279","firefly Hh reporter signal, replicate 1":5.88e5,"firefly Hh reporter signal, replicate 2":1.74e5,"Renilla reference signal, replicate 1":28305,"Renilla reference signal, replicate 2":12077,"outcome":"inactive"}
{"gene":"Ir48b (Ionotropic receptor 48b)","dsRNA":"DRSC06320","firefly Hh reporter signal, replicate 1":1.18e5,"firefly Hh reporter signal, replicate 2":81912,"Renilla reference signal, replicate 1":2944,"Renilla reference signal, replicate 2":6048,"outcome":"inactive"}
{"gene":"CG10749","dsRNA":"DRSC09798","firefly Hh reporter signal, replicate 1":14184,"firefly Hh reporter signal, replicate 2":22071,"firefly Hh reporter signal, replicate 3":38968,"Renilla reference signal, replicate 1":3219,"Renilla reference signal, replicate 2":2913,"outcome":"inactive"}
{"gene":"CG14642","dsRNA":"DRSC12228","firefly Hh reporter signal, replicate 1":1.57e5,"firefly Hh reporter signal, replicate 2":1.27e5,"Renilla reference signal, replicate 1":6227,"Renilla reference signal, replicate 2":5164,"outcome":"inactive"}
{"gene":"asRNA:CR43159 + yellow-k","dsRNA":"DRSC10851","firefly Hh reporter signal, replicate 1":1.67e5,"Renilla reference signal, replicate 1":6391,"Renilla reference signal, replicate 2":4650,"outcome":"inactive"}
{"gene":"chk (chaski)","dsRNA":"DRSC04994","firefly Hh reporter signal, replicate 1":79288,"firefly Hh reporter signal, replicate 2":35907,"Renilla reference signal, replicate 1":3268,"Renilla reference signal, replicate 2":1657,"outcome":"inactive"}
{"gene":"pths (porthos)","dsRNA":"DRSC03171","firefly Hh reporter signal, replicate 1":55539,"firefly Hh reporter signal, replicate 2":32114,"Renilla reference signal, replicate 1":2121,"Renilla reference signal, replicate 2":3673,"outcome":"inactive"}
{"gene":"Alp6 (Alkaline phosphatase 6)","dsRNA":"DRSC06710","firefly Hh reporter signal, replicate 1":69629,"firefly Hh reporter signal, replicate 2":53933,"Renilla reference signal, replicate 1":2486,"Renilla reference signal, replicate 2":2192,"outcome":"inactive"}
{"gene":"Arpc5 (Actin-related protein 2/3 complex, subunit 5)","dsRNA":"DRSC00730","firefly Hh reporter signal, replicate 1":76573,"firefly Hh reporter signal, replicate 2":73604,"Renilla reference signal, replicate 1":1952,"Renilla reference signal, replicate 2":2005,"outcome":"inactive"}
{"gene":"EMC2B + EMC2A","dsRNA":"DRSC15241","firefly Hh reporter signal, replicate 1":92856,"firefly Hh reporter signal, replicate 2":94368,"Renilla reference signal, replicate 1":994,"Renilla reference signal, replicate 2":2450,"outcome":"inactive"}
{"gene":"Mesh1 (Metazoan SpoT homolog-1)","dsRNA":"DRSC14433","firefly Hh reporter signal, replicate 1":74724,"firefly Hh reporter signal, replicate 2":98048,"Renilla reference signal, replicate 1":2263,"Renilla reference signal, replicate 2":2796,"outcome":"inactive"}
{"gene":"GstO3 (Glutathione S transferase O3)","dsRNA":"DRSC10710","firefly Hh reporter signal, replicate 1":31975,"firefly Hh reporter signal, replicate 2":59434,"Renilla reference signal, replicate 1":3424,"Renilla reference signal, replicate 2":4000,"outcome":"inactive"}
{"gene":"Arl6IP1 (ADP-ribosylation factor-like 6 interacting protein 1)","dsRNA":"DRSC14231","firefly Hh reporter signal, replicate 1":64422,"firefly Hh reporter signal, replicate 2":84449,"Renilla reference signal, replicate 1":1650,"Renilla reference signal, replicate 2":2196,"outcome":"inactive"}
{"gene":"CG13050","dsRNA":"DRSC09931","firefly Hh reporter signal, replicate 1":1.29e5,"Renilla reference signal, replicate 1":5688,"Renilla reference signal, replicate 2":3852,"outcome":"inactive"}
{"gene":"CG18682 (retired record)","dsRNA":"DRSC15373","firefly Hh reporter signal, replicate 1":1.19e5,"firefly Hh reporter signal, replicate 2":69602,"Renilla reference signal, replicate 1":4082,"Renilla reference signal, replicate 2":1756,"outcome":"inactive"}
{"gene":"CG18682 (retired record)","dsRNA":"DRSC15374","firefly Hh reporter signal, replicate 1":98576,"firefly Hh reporter signal, replicate 2":5.29e5,"firefly Hh reporter signal, replicate 3":77204,"Renilla reference signal, replicate 1":3276,"Renilla reference signal, replicate 2":2608,"outcome":"inactive"}
